# These are yes or no findings as the source states them, for the method shown. In cells and extracts the contact can be indirect. Some entries that bind do so weakly or less than the wild type.
# Amino acid sequences for entries named in this document (tags omitted). Residues count along the entry.
# UniProt P08069, residues 31-1367: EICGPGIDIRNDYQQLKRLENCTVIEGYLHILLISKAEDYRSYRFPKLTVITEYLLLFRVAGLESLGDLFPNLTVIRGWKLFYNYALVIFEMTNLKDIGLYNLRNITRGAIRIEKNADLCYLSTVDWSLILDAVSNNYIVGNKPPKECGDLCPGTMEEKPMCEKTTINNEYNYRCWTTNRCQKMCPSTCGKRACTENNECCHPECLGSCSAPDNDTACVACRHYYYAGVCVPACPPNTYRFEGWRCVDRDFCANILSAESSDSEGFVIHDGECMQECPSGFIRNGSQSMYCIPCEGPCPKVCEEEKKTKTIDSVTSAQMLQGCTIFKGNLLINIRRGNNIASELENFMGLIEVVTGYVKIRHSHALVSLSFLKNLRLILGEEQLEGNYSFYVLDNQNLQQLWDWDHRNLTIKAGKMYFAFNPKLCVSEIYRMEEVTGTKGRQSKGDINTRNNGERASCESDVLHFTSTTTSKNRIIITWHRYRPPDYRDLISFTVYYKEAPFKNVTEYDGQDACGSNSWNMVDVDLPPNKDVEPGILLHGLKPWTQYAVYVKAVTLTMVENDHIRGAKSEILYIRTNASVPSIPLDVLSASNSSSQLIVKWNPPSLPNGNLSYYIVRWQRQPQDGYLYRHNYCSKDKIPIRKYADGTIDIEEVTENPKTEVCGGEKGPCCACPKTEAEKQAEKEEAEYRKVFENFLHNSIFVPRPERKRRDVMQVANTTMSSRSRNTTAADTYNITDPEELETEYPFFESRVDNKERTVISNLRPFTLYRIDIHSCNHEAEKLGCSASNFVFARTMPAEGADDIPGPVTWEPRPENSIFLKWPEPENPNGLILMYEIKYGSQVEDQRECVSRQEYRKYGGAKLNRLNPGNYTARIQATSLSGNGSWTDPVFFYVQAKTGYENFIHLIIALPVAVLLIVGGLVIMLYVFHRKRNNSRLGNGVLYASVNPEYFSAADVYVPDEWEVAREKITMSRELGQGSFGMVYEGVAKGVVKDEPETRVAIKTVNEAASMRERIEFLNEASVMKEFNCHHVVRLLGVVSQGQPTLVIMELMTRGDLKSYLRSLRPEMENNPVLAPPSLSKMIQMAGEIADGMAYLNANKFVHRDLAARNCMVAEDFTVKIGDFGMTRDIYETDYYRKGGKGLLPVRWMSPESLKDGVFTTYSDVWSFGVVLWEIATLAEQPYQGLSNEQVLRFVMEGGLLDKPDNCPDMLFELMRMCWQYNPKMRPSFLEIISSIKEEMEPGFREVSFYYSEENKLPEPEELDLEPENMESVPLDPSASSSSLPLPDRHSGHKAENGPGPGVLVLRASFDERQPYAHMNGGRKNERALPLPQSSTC
# How the values were obtained:
# [1] = molecular target: IGF1R-NTEV-tcs-GV-2HA (insulin growth factor 1 receptor fused to the NTEV-tcs-GV tag) (UniProt P08069); experiment: split reporter; split TEV recruitment assay in dose-response format in living PC12 cells; increasing concentrations of agonist (EGF, EGFld, IGF1, HGF) at semi-logarithmic scale, or increasing antagonist (lapatinib, WZ4002 and others) followed 1 h later by a constant agonist; firefly luciferase read-out, Renilla control; ERBB2-V5 co-transfected for ERBB3
# [2] = molecular target: IGF1R-NTEV-tcs-GV-2HA (insulin growth factor 1 receptor fused to the NTEV-tcs-GV tag) (UniProt P08069); experiment: split reporter; split TEV recruitment end-point assay in living PC12 cells, 96-well; receptor-NTEV-tcs-GV and adapter-CTEV plasmids with a 10xUAS-minCMVp firefly luciferase reporter; cells starved 16-20 h, stimulated 16 h with EGF (30 ng/ml), EGFld (10 ng/ml), IGF1 (100 ng/ml) or HGF (100 ng/ml) or left non-stimulated; ERBB2-V5 co-transfected for ERBB3
substance,measurement,setting,value
"SH2(GRB2)-CTEV-2HA (artificial adapter of three concatenated SH2 domains of GRB2, fused to CTEV) (from UniProt P62993 60-152; P62993 60-152; P62993 60-152) (designed binder)",binding,[1],binds
same,binding,[2],binds
